According to paper PMC4982022:
Results are given in words; binding and its absence hold for the method and conditions named. Binding seen in cells or lysates may run through a third protein. Some entries that bind do so weakly or less than the wild type. Sequences can lack the tags named with a protein.

By UniProt entry, the sequences of proteins in these tests, tags left out.
UniProt P61765: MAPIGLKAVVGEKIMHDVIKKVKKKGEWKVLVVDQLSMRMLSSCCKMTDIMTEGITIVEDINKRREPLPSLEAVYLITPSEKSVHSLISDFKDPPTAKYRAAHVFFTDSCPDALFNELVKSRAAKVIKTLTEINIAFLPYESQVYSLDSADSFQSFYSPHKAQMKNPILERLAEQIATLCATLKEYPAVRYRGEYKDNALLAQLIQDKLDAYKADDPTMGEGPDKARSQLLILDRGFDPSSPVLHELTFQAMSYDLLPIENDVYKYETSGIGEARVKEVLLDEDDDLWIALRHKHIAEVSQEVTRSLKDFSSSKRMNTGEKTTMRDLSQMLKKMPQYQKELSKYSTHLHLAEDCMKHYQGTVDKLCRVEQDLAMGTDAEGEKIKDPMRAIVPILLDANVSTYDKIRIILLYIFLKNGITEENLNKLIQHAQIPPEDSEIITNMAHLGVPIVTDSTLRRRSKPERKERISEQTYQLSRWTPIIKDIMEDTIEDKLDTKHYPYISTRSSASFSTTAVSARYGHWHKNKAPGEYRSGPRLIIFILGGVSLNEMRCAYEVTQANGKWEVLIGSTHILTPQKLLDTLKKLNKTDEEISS

Target: T1, GST‐Mint1(1‐314) (mouse) (UniProt B2RUJ5)
T1 sequence: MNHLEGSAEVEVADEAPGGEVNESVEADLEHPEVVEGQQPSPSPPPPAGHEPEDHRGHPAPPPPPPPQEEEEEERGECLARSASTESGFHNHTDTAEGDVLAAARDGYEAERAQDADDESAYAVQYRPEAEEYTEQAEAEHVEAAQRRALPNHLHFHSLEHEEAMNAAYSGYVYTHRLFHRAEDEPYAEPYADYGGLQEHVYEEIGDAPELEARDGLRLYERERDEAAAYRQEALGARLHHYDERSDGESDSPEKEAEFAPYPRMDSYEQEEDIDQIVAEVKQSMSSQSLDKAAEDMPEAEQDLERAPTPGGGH
Assay: pull-down; GST‐Mint1(1‐314) incubated with or without C‐Src kinase, then with glutathione resin and bacterial lysate containing His‐Munc18; bound Munc18 detected by immunoblotting; only the target purified

- binding: binds
Substance: His‐Munc18 (from UniProt P61765 1-594)
